PubChem BioAssay AID1259308, NCATS, 2017
In all, the deposit lists about 59,000 reagents; this is a random part of them. About 1,510 of them (2.6%) were called active. 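Calls use total luciferase alone and ignore viability, so some active siRNAs may act by altering cell number.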 The numbers tell different reagents against one gene apart. Further read-outs or replicates are left out here. Reagent sequences are not shown.

Test: 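Knock-downs that increase output of a recombinant reporter protein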 (primary screen)
Cell system: human HEK293 embryonic kidney cells stably expressing firefly luciferase (HEK-CMV-Luc2-Hygro)
Knock-down reagent: single siRNA against human genes, 0.8 pmol siRNA per well
Time to read-out: 72 h
Measurement: 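Reporter luminescence and viable-cell signal on separate replicate plates, given as percent of non-targeting control and median/MAD z-scores, plus per-cell luciferase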
Reading the numbers: total luciferase, z-score: higher = more reporter protein produced
Rule for the call: 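An siRNA counts as active if its total luciferase robust z-score exceeds 3; genes with two or more such siRNAs out of three were retested with fresh siRNAs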
Meaning of the calls: active = raised luciferase; inactive = no rise

total luciferase, z-score, by target and reagent
AK4 (GeneID 205): #1 0.416 inactive; #2 1.52 inactive; #3 -0.708 inactive; #4 -0.251 inactive; #5 1.26 inactive; #6 0.163 inactive
YME1L1 (GeneID 10730): #1 -0.766 inactive; #2 -0.658 inactive; #3 1.52 inactive
HLA-DMB (GeneID 3109): #1 1.35 inactive; #2 -0.896 inactive; #3 0.263 inactive
RBM12 (GeneID 10137): #1 0.914 inactive; #2 2.03 inactive; #3 0.23 inactive
RBIS (GeneID 401466): #1 -0.591 inactive; #2 0.518 inactive; #3 2.89 inactive
SOD1 (GeneID 6647): #1 -1.37 inactive; #2 0.685 inactive; #3 1.75 inactive
CLEC4E (GeneID 26253): #1 1.85 inactive; #2 -0.716 inactive; #3 -0.11 inactive
PARP1 (GeneID 142): #1 0.958 inactive; #2 -1.53 inactive; #3 0.777 inactive
RSU1 (GeneID 6251): #1 0.895 inactive; #2 -0.216 inactive; #3 -0.00175 inactive
GRIFIN (GeneID 402635): #1 -0.467 inactive; #2 -1.49 inactive; #3 -0.495 inactive
SERTM1 (GeneID 400120): #1 2.58 inactive; #2 0.804 inactive; #3 -0.0346 inactive
ZNF678 (GeneID 339500): #1 3.17 active; #2 -0.899 inactive; #3 0.667 inactive
OR56B1 (GeneID 387748): #1 -0.432 inactive; #2 0.533 inactive; #3 3.05 active
AURKB (GeneID 9212): #1 -1.72 inactive; #2 -0.847 inactive; #3 -0.309 inactive
ADH5P4 (GeneID 642443): #1 -0.331 inactive; #2 -1.4 inactive; #3 2.07 inactive
BMP6 (GeneID 654): #1 0.00679 inactive; #2 -0.594 inactive; #3 1.24 inactive
HUWE1 (GeneID 10075): #1 -0.0617 inactive; #2 0.295 inactive; #3 0.525 inactive
ANKS6 (GeneID 203286): #1 -0.265 inactive; #2 -2.03 inactive; #3 0.249 inactive
LMF2 (GeneID 91289): #1 0.342 inactive; #2 -0.1 inactive; #3 -1.81 inactive
LOC440300 (GeneID 440300): #1 2.36 inactive; #2 0.278 inactive; #3 2.48 inactive
SNX33 (GeneID 257364): #1 6.77 active; #2 0.221 inactive; #3 -2.28 inactive
DYNC1H1 (GeneID 1778): #1 -1.25 inactive; #2 -0.115 inactive; #3 1.53 inactive
IRF7 (GeneID 3665): #1 0.655 inactive; #2 0.0748 inactive; #3 1.06 inactive
TST (GeneID 7263): #1 -1.59 inactive; #2 7.56 active; #3 0.923 inactive

Called active, among the entries above:
total luciferase, z-score, by target and reagent
ZNF678 (GeneID 339500): #1 3.17 active
OR56B1 (GeneID 387748): #3 3.05 active
SNX33 (GeneID 257364): #1 6.77 active
TST (GeneID 7263): #2 7.56 active
